# Laboratory results published in the supplement of paper PMC7666118.
# The chains behind the UniProt entries cited, without tags or fusion partners. Where a name states a change or a piece, a line headed by the entry shows the natural chain unless it says otherwise.
# UniProt O14964, whole entry: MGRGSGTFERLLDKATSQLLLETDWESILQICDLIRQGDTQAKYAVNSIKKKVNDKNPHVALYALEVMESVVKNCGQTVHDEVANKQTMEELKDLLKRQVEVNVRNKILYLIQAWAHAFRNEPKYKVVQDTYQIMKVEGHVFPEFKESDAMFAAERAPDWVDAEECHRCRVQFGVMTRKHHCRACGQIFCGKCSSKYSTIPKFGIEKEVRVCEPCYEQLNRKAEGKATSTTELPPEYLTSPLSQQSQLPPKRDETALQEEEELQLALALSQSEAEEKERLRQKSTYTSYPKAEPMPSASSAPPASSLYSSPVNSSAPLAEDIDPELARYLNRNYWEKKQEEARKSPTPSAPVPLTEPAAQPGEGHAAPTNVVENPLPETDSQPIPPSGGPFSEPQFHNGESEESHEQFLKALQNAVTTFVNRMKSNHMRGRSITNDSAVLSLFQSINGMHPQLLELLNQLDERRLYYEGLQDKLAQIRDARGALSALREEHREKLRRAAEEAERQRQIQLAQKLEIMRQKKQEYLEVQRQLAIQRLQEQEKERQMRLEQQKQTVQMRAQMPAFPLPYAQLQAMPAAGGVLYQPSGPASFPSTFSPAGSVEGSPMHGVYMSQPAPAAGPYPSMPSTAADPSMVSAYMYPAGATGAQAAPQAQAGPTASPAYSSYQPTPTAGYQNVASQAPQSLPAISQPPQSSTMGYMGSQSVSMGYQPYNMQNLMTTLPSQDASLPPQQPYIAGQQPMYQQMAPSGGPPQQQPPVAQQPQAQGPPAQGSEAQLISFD
# UniProt P31150: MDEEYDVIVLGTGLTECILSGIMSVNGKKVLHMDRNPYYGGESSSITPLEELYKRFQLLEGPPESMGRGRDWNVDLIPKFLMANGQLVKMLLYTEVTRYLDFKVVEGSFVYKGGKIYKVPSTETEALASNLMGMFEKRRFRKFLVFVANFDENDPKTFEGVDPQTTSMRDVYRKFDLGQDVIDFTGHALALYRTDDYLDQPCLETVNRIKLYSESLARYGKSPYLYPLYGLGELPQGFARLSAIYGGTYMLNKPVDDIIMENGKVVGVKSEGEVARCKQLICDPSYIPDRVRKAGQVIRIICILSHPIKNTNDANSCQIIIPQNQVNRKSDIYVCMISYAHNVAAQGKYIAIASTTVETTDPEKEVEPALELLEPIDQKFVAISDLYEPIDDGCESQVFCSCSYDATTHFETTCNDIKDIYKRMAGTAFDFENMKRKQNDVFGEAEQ
# UniProt O75496: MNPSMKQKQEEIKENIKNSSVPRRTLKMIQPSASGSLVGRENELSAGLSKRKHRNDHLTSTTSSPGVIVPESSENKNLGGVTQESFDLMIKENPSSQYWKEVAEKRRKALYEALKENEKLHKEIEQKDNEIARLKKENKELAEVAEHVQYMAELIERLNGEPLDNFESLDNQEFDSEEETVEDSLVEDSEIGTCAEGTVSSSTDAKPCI
# UniProt Q9Y450, whole entry: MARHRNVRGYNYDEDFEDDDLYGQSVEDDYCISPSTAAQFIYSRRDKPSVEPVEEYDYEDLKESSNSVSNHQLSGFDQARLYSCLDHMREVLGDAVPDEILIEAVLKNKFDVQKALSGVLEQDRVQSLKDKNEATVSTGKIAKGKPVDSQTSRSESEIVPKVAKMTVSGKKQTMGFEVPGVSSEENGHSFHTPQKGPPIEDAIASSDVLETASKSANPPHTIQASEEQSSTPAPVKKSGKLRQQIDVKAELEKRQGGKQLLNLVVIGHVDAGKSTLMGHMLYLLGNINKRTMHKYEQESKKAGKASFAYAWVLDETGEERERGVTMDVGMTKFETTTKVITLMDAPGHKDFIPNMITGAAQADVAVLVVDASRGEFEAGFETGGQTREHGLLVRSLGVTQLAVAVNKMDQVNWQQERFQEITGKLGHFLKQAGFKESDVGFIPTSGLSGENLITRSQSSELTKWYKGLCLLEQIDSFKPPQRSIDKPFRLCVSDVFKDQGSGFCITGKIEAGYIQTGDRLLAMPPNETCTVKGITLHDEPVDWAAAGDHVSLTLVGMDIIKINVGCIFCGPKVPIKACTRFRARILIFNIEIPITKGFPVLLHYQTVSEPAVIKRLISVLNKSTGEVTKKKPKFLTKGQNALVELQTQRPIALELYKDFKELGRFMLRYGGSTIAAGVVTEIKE
# UniProt Q8TD30: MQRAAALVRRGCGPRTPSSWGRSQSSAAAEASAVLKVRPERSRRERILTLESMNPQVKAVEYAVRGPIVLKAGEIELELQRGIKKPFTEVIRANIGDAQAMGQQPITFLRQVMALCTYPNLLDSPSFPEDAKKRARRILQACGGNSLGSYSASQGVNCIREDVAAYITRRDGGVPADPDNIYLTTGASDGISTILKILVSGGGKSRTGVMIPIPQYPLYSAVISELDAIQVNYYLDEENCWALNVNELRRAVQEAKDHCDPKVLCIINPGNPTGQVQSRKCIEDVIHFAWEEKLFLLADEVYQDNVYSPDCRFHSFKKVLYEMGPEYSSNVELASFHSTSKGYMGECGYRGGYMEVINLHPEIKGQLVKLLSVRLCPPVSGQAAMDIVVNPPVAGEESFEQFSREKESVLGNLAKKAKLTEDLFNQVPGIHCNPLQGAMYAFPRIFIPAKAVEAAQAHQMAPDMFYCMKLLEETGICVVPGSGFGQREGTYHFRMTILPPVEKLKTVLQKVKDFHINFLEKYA
# UniProt Q6AI08: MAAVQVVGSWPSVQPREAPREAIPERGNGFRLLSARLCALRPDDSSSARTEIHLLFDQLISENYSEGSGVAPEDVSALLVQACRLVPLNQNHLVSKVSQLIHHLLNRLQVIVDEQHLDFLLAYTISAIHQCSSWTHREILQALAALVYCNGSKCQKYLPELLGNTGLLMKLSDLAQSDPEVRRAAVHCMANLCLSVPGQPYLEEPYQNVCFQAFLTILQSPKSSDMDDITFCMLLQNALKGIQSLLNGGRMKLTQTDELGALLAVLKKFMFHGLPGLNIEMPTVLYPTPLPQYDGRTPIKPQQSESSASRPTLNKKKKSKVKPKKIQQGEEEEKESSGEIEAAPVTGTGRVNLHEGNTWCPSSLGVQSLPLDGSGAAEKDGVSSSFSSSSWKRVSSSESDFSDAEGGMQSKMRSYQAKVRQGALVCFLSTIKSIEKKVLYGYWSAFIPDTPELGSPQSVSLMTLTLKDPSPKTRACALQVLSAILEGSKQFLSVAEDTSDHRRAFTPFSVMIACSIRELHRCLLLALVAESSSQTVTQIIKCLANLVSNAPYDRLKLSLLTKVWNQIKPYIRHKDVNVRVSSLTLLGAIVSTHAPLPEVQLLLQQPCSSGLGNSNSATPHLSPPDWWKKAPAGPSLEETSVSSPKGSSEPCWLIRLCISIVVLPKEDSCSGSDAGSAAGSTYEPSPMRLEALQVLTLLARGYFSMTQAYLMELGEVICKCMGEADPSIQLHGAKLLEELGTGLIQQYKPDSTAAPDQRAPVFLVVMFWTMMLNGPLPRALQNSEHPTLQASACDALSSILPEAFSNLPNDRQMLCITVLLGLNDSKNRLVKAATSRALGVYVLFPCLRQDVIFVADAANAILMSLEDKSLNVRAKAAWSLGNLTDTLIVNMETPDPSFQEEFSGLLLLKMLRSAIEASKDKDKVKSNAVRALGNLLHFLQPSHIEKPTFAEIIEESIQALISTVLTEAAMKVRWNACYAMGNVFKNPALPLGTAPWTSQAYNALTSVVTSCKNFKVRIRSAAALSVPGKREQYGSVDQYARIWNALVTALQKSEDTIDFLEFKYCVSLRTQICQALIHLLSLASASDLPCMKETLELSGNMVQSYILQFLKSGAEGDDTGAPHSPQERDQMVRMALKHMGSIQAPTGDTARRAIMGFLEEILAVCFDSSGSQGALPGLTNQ
# UniProt P06396, whole entry: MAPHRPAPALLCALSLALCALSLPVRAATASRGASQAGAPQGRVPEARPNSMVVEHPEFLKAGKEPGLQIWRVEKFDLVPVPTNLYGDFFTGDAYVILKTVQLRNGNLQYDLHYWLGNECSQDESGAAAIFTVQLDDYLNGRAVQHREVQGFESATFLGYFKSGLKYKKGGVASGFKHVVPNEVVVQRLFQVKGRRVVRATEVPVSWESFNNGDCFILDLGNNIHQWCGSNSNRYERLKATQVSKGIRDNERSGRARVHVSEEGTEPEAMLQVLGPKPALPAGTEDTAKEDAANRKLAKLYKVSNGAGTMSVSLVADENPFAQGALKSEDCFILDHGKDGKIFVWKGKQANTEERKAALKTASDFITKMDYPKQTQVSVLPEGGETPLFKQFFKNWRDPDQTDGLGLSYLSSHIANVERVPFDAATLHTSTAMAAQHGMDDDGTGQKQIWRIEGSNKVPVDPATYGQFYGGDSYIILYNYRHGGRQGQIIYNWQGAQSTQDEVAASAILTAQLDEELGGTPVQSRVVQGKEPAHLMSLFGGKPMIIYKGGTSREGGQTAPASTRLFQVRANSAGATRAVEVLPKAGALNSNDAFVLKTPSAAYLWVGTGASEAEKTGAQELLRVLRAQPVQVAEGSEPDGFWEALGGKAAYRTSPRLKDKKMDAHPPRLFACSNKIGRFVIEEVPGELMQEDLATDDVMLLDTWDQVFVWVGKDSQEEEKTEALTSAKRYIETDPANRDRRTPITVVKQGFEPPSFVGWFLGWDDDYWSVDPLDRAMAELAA
# UniProt P09211: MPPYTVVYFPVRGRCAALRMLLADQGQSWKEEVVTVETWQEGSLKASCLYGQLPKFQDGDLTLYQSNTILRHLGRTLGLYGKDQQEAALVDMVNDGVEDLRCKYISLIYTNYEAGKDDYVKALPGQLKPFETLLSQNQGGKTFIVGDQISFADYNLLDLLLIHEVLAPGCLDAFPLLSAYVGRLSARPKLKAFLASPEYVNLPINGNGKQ
# UniProt Q8NDA8: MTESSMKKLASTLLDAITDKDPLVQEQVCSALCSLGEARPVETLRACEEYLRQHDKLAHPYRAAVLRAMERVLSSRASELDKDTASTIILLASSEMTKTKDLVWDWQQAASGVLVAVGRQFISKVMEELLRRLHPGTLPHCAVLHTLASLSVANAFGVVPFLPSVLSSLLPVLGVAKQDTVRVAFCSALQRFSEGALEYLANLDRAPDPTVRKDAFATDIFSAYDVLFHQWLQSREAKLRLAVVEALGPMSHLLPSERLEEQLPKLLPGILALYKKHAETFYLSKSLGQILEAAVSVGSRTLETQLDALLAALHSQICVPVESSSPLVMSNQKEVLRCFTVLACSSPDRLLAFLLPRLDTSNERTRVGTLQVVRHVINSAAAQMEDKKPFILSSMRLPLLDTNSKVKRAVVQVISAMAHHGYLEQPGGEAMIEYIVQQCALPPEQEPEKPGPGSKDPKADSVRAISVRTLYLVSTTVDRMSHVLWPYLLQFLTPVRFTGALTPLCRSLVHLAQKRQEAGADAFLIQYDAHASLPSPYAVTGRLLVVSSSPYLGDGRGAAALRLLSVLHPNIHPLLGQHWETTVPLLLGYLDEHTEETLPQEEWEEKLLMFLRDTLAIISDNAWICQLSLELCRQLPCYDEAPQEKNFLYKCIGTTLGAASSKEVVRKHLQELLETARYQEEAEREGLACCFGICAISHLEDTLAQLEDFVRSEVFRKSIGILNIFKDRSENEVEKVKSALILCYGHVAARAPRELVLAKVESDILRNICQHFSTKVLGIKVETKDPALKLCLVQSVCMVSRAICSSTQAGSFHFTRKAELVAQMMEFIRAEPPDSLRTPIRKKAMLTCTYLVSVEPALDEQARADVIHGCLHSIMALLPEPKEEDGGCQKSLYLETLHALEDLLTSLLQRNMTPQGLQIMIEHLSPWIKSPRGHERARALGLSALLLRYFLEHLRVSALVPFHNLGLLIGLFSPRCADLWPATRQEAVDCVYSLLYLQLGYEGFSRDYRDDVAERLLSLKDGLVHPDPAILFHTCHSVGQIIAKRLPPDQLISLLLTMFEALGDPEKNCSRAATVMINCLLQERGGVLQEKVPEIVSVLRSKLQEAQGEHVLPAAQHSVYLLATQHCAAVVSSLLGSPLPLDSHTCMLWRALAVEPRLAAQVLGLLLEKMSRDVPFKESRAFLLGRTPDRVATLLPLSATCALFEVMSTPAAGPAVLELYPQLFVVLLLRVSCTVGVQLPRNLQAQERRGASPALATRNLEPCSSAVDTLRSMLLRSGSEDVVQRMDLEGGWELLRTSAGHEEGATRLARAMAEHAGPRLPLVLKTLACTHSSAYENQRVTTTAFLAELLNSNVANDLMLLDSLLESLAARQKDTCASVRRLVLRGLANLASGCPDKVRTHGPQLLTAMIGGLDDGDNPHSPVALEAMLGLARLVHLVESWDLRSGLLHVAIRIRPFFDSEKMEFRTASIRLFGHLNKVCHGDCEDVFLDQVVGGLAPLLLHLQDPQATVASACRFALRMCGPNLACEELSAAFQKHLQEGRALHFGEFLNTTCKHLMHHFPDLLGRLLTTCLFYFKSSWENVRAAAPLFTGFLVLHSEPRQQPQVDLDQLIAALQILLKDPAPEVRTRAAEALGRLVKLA
# Some of the results follow.
# Compound: COc1ccc(Cn2ccc3ccc(C(=O)NO)cc32)cc1
# Test: dose-dependent thermal stabilisation call (2D-TPP, DLPTP, 10% FDR) (binary (1 = stabilised)); higher = stabilised by the compound
# Settings: system: HL-60 intact cells; concentration range 0.04-10 µM
row,Target,dose-dependent thermal stabilisation call
1,HGS (UniProt O14964),inactive: 0
2,HECA (UniProt Q9UBI9),inactive: 0
3,GNL2 (UniProt Q13823),inactive: 0
4,GTF2H1 (UniProt P32780),inactive: 0
5,GDI1 (UniProt P31150),inactive: 0
6,GMNN (UniProt O75496),inactive: 0
7,GPN2 (UniProt Q9H9Y4),inactive: 0
8,HCCS (UniProt P53701),inactive: 0
9,GSDMD (UniProt P57764),inactive: 0
10,HBS1L (UniProt Q9Y450),inactive: 0
11,GCSH (UniProt P23434),inactive: 0
12,HAGH (UniProt Q16775),inactive: 0
13,GLMN (UniProt Q92990),inactive: 0
14,GPATCH4 (UniProt Q5T3I0),inactive: 0
15,HCG_2033311,inactive: 0
16,GCS1 (UniProt Q13724),inactive: 0
17,HDHD3 (UniProt Q9BSH5),inactive: 0
18,HELB (UniProt Q8NG08),inactive: 0
19,H6PD (UniProt O95479),inactive: 0

row,Target,dose-dependent thermal stabilisation call
1,H1FX (UniProt Q92522),inactive: 0
2,GPT2 (UniProt Q8TD30),inactive: 0
3,HIST1H1C (UniProt P16403),inactive: 0
4,GRAMD4 (UniProt Q6IC98),inactive: 0
5,GGA1 (UniProt Q9UJY5),inactive: 0
6,GTF2A1 (UniProt P52655),inactive: 0
7,GCN1L1 (UniProt Q92616),inactive: 0
8,GTF3C5 (UniProt Q9Y5Q8),inactive: 0
9,HIBCH (UniProt Q6NVY1),inactive: 0
10,GIPC1 (UniProt O14908),inactive: 0
11,HEATR6 (UniProt Q6AI08),inactive: 0
12,GSN (UniProt P06396),inactive: 0
13,GLTSCR2 (UniProt Q9NZM5),inactive: 0
14,GSTP1 (UniProt P09211),inactive: 0
15,HECTD3 (UniProt Q5T447),inactive: 0
16,HEATR7A (UniProt Q8NDA8),inactive: 0
17,GTF2F1 (UniProt P35269),inactive: 0
18,GEMIN6 (UniProt Q8WXD5),inactive: 0

# 2 records picked at random from those above, as already listed:
row,Target,dose-dependent thermal stabilisation call
4,GRAMD4 (UniProt Q6IC98),inactive: 0
6,GTF2A1 (UniProt P52655),inactive: 0
